Data reported in PubChem BioAssay AID1508600 (Functional Genomics Laboratory (NCATS/FGL), 2020).
Among all 53,000 sequences or so, about 3,700 (7%) were called active.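 Rule for the calls: active = gene knockdowns whose robust z-score for IL-1 alpha signal is at least 2 or at most -2, so actives lie on both sides; inactive = the rest.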 Some of the results follow.

Assay: Components of the Cytosolic LPS Sensing Pathway: Gene Identification via Genome-wide siRNA Screen;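 note: robust z of the log signal after scaling to non-targeting control siRNA wells of the plate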
Conditions: RAW264.7 macrophages, IL-1a HTRF, actives lie on both sides, screened at 100 nM (by protocol), cells primed 5 h with Pam3CSK4 first
Method in brief: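 RAW264.7 mouse macrophages reverse-transfected with single siRNAs (100 nM final) for 48h, primed with Pam3CSK4 for 5 hours, then transfected with LipidA for 24 hour. Supernatant IL-1a read by HTRF; values normalized to negative-control median, log-transformed robust z-scores.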

Which z-score does the source give for GGUUUGAAAGUUCUUUUGUTT against Dph3 here?
Its z-score is inactive: -0.35.

With GGCAUUUCAGGUUCAUGGATT against Zfp101 as the sequence, how does the z-score read?
The z-score was inactive: 0.0509.

For CCCUGACACUAAUUUUCCUTT against Nagpa, which z-score is on record?
Its z-score is inactive: 0.446.

Which z-score does the source give for CGUUUAUGAAGUGAAAGAUTT against Mrpl37 here?
The z-score was inactive: -0.636.

Which z-score does the source give for CCAGAUGAACGGGACAAACTT against Cited2 here?
Its z-score is inactive: 0.769.

Which z-score does the source give for GGUGCCAGAUGUCAAGAAATT against Rpn2 here?
Its z-score is inactive: -0.685.

With GGGAAUGUGGAAGAGUUCCTT against Atg4c as the sequence, how does the z-score read?
Its z-score is inactive: 0.896.

Which z-score does the source give for GCAGUAGCUGAAUUUUUUATT against Cnot10 here?
Its z-score is inactive: -1.43.

For GGAAGAAGAAGACCAGGGATT against Parvb, which z-score is on record?
Its z-score is inactive: -0.0188.

With CGGAUAUGAAUUUUUUGCUTT against Ppp1cb as the sequence, how does the z-score read?
Its z-score is inactive: 0.116.

For CCUGAUCGUCAUCUAUACCTT against Irs3, which z-score is on record?
Its z-score is inactive: -1.73.

For GCGAAUUCAUGUUUGAGGATT against Foxf2, which z-score is on record?
Its z-score is inactive: 0.023.

Which z-score does the source give for GGUUCCAGCUAAUAGCCUGTT against Plekhj1 here?
The z-score was inactive: 0.175.

For GGCUUGGUAUGAUGCGCACTT against Rbm12, which z-score is on record?
Its z-score is inactive: 0.486.

Which z-score does the source give for CCUCAUCAAAAUUUACCAUTT against Fcrls here?
The z-score was inactive: -0.638.

With AACUCCCUCCCUGUUGUAGTT against A4galt as the sequence, how does the z-score read?
Its z-score is inactive: -0.361.

With CCAUAUUUAAGUCCCUGUCTT against Pim1 as the sequence, how does the z-score read?
The z-score was inactive: -1.1.

With GGUCUAUGUACUCGCCAAATT against Sirpa as the sequence, how does the z-score read?
The z-score was inactive: -0.271.

For GGAUAUUAUCUUCAGACCATT against Slc15a5, which z-score is on record?
The z-score was inactive: -0.628.

For GGAAAAUUGGGAAAAUGUGTT against Sell, which z-score is on record?
Its z-score is inactive: -0.712.

With GGAAGUUGAUAAGAGAGUGTT against Esco2 as the sequence, how does the z-score read?
The z-score was inactive: -0.524.

Which z-score does the source give for GCUAAAUUUACUUGUAUGGTT against Cd46 here?
Its z-score is inactive: -0.349.

For GGAGAAAGCCUUCCUUAGUTT against Trpc5, which z-score is on record?
The z-score was inactive: -0.115.

For GCAAAUCCCAGUCUCACCATT against Tmem88, which z-score is on record?
The z-score was inactive: -1.43.

With GGAAGAUACUAAUAGAGUATT against Enpep as the sequence, how does the z-score read?
Its z-score is inactive: -0.00304.

Which z-score does the source give for GCAUACAGAUUUACACCUGTT against Rhox11 here?
The z-score was inactive: -0.524.

With GGAAAGAGCCAUCCUUUGATT against Gnmt as the sequence, how does the z-score read?
Its z-score is inactive: -0.186.

Which z-score does the source give for GGCUCUUCUUAUGCACCCUTT against Pdyn here?
The z-score was inactive: -0.543.

Which z-score does the source give for CCACCAAUCCCAUCCAAAUTT against Sox2 here?
The z-score was inactive: -0.279.
